The supplement of paper PMC3334620
Over roughly 33,000 sequences, “E-score (-0.5 to 0.5)” has its median near -0.0034; the highest 2% begin near 0.25. The list shows a part of the results.

These sequences were tested against T1, Yap3 (UniProt P38749) (assay: PBM E-score (8-mer binding enrichment) (E-score (-0.5 to 0.5)); higher = stronger / more preferred TF binding). Conditions: protein concentration: 100 nM; construct: GST-full length.
T1 sequence: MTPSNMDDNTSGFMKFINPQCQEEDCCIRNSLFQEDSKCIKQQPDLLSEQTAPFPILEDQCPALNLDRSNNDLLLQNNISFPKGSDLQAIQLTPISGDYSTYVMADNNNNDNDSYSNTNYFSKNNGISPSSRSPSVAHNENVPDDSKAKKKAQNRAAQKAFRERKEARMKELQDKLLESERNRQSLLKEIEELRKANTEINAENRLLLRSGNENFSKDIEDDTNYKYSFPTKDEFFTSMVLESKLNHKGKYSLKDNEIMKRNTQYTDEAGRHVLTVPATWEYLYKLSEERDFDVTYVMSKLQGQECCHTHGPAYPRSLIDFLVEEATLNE
In short: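 Universal all-10-mer Agilent arrays, double-stranded by primer extension on fresh or once-stripped slides, were probed with about 100-200 nM GST-tagged yeast transcription factors made by PURExpress. Fluorescent anti-GST detected bound protein, and masliner normalised the scans. E-scores from the Universal PBM Analysis Suite were given to each ungapped eight-base word pooled with its reverse complement.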

Sequence	PBM E-score
AGAGCGAT	-0.15
ATCTCAGG	0.0486
AGCCAACA	0.00453
AGCCGGCA	-0.122
CATGTTAG	-0.0918
ATGATTTG	0.0669
CAGAAAAG	0.123
AAATCTCC	-0.186
AAGTCGAT	0.0754
TCATGCAA	0.214
CTGAATAC	0.134
AGCGATAC	-0.0569
CAGATAGG	-0.0454
CCCCCTAG	-0.341
GAAATCGC	-0.0263
ACGCGCAG	-0.0605
AACTGTTC	0.0651
AGCCCCAA	-0.152
CCTATGTC	-0.0131
CCACACTA	0.168
AATCCAGC	-0.0353
CAATTCGG	0.116
CTGGAGAA	-0.176
GATACCCC	-0.0154
ACTCATCT	0.115

Sequence	PBM E-score
AAGGGGAT	0.00955
ATATTCGC	0.191
GTCCGAGA	0.0651
CACATCGA	0.0577
AAGAACAT	0.247
CAAAGTTG	-0.125
AACTCACT	-0.184
GGCCAAAC	-0.132
AGTCTTGG	-0.0781
CATTGGCA	-0.017
TCCCCGCA	-0.0831
CGGCTAGC	-0.156
GCCTAGCC	-0.0707
CGTGACCA	-0.0499
CTGTAGGA	0.0798
AGAGCCAC	-0.222
AAGCACTT	-0.0376
AAGAGGCG	0.0465
ACACAACT	0.12
AGCATTGA	-0.0431
TTCGTAAA	0.0786
AGGGAGCA	-0.309
AGCTCATA	-0.0143
CGGTAACA	0.193
CCTAGATA	0.0173

Sequence	PBM E-score
GCGAGCCC	-0.199
AATAGTCG	0.0905
GCCCGTGA	-0.169
AAAACGTT	0.122
ACCGGATA	0.106
CAATAGTC	-0.0565
CCCATGAC	0.0625
AAGGTATT	0.0804
AAGCGGTG	-0.239
CAAATAAA	0.197
ACGCGCCT	0.0287
GTGCGGGA	-0.125
GTGGACTA	0.0737
GGCAGGCA	-0.146
CCTCAAGC	-0.206
GTGATCAA	0.0619
AGTGCGCG	-0.0557
ATAGCACG	-0.0395
CCGCACGA	-0.0433
CTAATGAG	0.0989
ATGTTACC	0.134
GTTCGAAC	0.209
ATGCTCTC	-0.129
ACGTGGCG	-0.0655
CTTAAGGA	0.0593

Reformatted with bars between the fields: part of the list above.
Sequence | PBM E-score
AAGAACAT | 0.247
CAAAGTTG | -0.125
AACTCACT | -0.184
GGCCAAAC | -0.132
AGTCTTGG | -0.0781
CATTGGCA | -0.017
TCCCCGCA | -0.0831
CGGCTAGC | -0.156
GCCTAGCC | -0.0707
CGTGACCA | -0.0499
CTGTAGGA | 0.0798
AAGAGGCG | 0.0465
ACACAACT | 0.12
AGCATTGA | -0.0431
TTCGTAAA | 0.0786
AGGGAGCA | -0.309
AGCTCATA | -0.0143
CGGTAACA | 0.193
CCTAGATA | 0.0173
GCGAGCCC | -0.199
AATAGTCG | 0.0905
GCCCGTGA | -0.169
AAAACGTT | 0.122
ACCGGATA | 0.106
CAATAGTC | -0.0565
CCCATGAC | 0.0625
AAGGTATT | 0.0804
AAGCGGTG | -0.239
ACGCGCCT | 0.0287
GTGCGGGA | -0.125
GTGGACTA | 0.0737
GGCAGGCA | -0.146
CCTCAAGC | -0.206
GTGATCAA | 0.0619
AGTGCGCG | -0.0557
ATAGCACG | -0.0395
CCGCACGA | -0.0433
CTAATGAG | 0.0989
ATGTTACC | 0.134
GTTCGAAC | 0.209
ATGCTCTC | -0.129
ACGTGGCG | -0.0655
CTTAAGGA | 0.0593

Following part.

Sequence	PBM E-score
AAACATTT	0.199
AAGACAGA	0.147
GGTGCACA	-0.0173
ATCGAAAG	0.114
TATATAGA	0.192
AGGTGCGG	-0.119
AATAACAG	0.149
CAACAGGA	-0.164
CCTATTTA	0.19
ACCGCACT	-0.0152
AGGAACCC	-0.0773
ACCTCGCT	0.0149
CTACGGGA	-0.115
ATACCCGC	0.0243
AGTCGAAG	-0.0648
CATTGATA	0.18
TGAAGTCA	0.0702
CACATATA	0.176
GCCACCCC	-0.339
ACAGACGT	-0.147
CATGAACA	0.0723
AATTCTCC	0.0757
CCCTGGAC	-0.206
GCCTATTA	0.205
CACGACAG	-0.0208

Sequence	PBM E-score
GATAGAGA	0.106
ACCGGAAT	0.0182
GAACGGAA	0.0365
CAAATGAG	-0.0385
AGTATGAG	0.0598
AGGCCGCG	-0.124
CAAACTCG	0.00872
ATTCGCAC	0.0279
CGTTAGAC	-0.0418
AATGGTTG	0.0504
AGCCCGTC	-0.315
AAAACGAA	0.224
CGGATGCC	-0.106
AATATTGG	0.165
AGTGTGTC	-0.0449
CGCAAGGA	0.0605
GGGCTATA	-0.226
ACACCCGT	-0.117
GTCCGAAA	0.171
ACGACAAT	0.129
AAGGTGGT	0.026
ACCACTAA	0.209
GCATGATA	0.184
CCAGTCAG	-0.119
CGAACAAG	0.0425

Sequence	PBM E-score
ATTAGAGA	0.041
ATACGACG	0.0574
CAACGTAG	0.051
CCGTTAGA	0.0691
GCAGACGA	-0.11
TGTGCACA	-0.175
CCCGTTGC	-0.23
GCTGCGAC	-0.0259
GCAAGTTA	0.0548
GCGGCACC	-0.0717
CTGACCCA	-0.19
CGCTCTTA	0.137
GGTTTGAA	0.0872
CATAGTGC	0.0117
CGCGGAGC	-0.179
ATATTCCG	0.181
AAGTTAGC	0.151
ACTGATAA	0.187
CTATTCTC	0.134
CATACTAA	0.195
CTGGGCAC	-0.189
ACTCCTCT	-0.128
CCGACGTC	-0.0154
TAGAGATA	0.0621
GACAGCAC	0.011

Sequence	PBM E-score
AGCGGGTC	-0.304
GACAGAAA	0.183
CAAAGAAG	-0.0377
CCATGGAG	-0.226
CCTAGCCA	-0.0764
ATATGGGA	0.0698
AAGAGAAC	0.0562
CTCACGAA	0.05
AGGAGGGG	-0.12
GCACATTA	0.0906
AACTCGCA	0.00632
AAATTGAA	0.144
AAGGAAAT	0.144
CGGCTTAC	0.148
ATCTGTCC	-0.0275
AAGAACAG	0.0639
AGTTGTAC	-0.0319
CGAGAGTC	-0.129
GTGCCGAA	-0.0809
AGGCAGGA	0.035
CGCAGCAG	-0.106
GATACCAA	0.134
